Measurements reported in PubChem BioAssay AID1259254 (NCATS, 2017).
This is an unselected part of about 59,000 reagents tested. About 1,550 of them (2.6%) count as active. 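G2 share is only a proxy for re-replication; each gene was hit by three separate siRNAs, and active genes were retested.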 Raw values vary from plate to plate and are shown uncorrected. A number with no mark means an inactive call. The numbers tell different reagents against one gene apart. Reagent sequences are not shown. Not stated in the record: the amount of reagent.

Assay: 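Finding genes that stop cells copying their DNA twice in one cycle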 (primary screen)
System: human HCT116 colorectal cancer cells
Reagent: single siRNA against human genes
Timing: 3 days
Measured: 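Nuclei stained with Hoechst and imaged; cell-cycle phase assigned by DNA content; G2 share scaled per plate, non-targeting siRNA 0%, GMNN siRNA 100%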
Scale: G2 robust z-score and G2 cells, % of GMNN control: higher = more G2 cells, more excess DNA replication; raw share of cells in G2: higher = larger share of cells with G2 DNA content
Hit rule: 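An siRNA counts as active if its G2 robust z-score lies at least 5 MADs above the screen median; here such calls match roughly 38% of GMNN control or more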

Target gene | reagent | G2 robust z-score | G2 cells, % of GMNN control | raw share of cells in G2 (%)
FANCB | 1 | -0.514 | -0.648 | 3.27
FANCB | 2 | 0.293 | 5.03 | 7.66
FANCB | 3 | -0.804 | -2.69 | 3.1
PPM1K | 1 | -0.235 | 1.32 | 5.22
PPM1K | 2 | -0.431 | -0.0677 | 4.28
PPM1K | 3 | -0.789 | -2.58 | 2.72
LOC653698 | 1 | 0.529 | 6.69 | 6.24
LOC653698 | 2 | 0.00158 | 2.98 | 4.27
LOC653698 | 3 | -0.116 | 2.15 | 3.42
MRPL37 | 1 | 0.0256 | 3.15 | 5.06
MRPL37 | 2 | -0.157 | 1.86 | 5.25
MRPL37 | 3 | -0.532 | -0.779 | 3.01
DPP7 | 1 | 0.639 | 7.47 | 7.55
DPP7 | 2 | -0.386 | 0.254 | 4
DPP7 | 3 | 3.66 | 28.7 | 15.6
OOSP1 | 1 | 0.336 | 5.33 | 5.51
OOSP1 | 2 | -0.593 | -1.21 | 2.72
OOSP1 | 3 | -0.728 | -2.16 | 2.51
YARS1 | 1 | 5.81 (active) | 43.8 | 24.4
YARS1 | 2 | 4.15 | 32.2 | 16.2
YARS1 | 3 | -0.208 | 1.51 | 5.79
DENND5B | 1 | 7.26 (active) | 54 | 23
DENND5B | 2 | 2.62 | 21.4 | 10.1
DENND5B | 3 | 0.308 | 5.13 | 4.39
VIT | 1 | 0.836 | 8.85 | 8.74
VIT | 2 | 0.0594 | 3.39 | 5.56
VIT | 3 | 0.0636 | 3.41 | 4.59
ZNF791 | 1 | 0.254 | 4.75 | 5.19
ZNF791 | 2 | 0.338 | 5.35 | 4.93
ZNF791 | 3 | -0.231 | 1.34 | 3.63
PLAA | 1 | -0.596 | -1.23 | 4.07
PLAA | 2 | -0.903 | -3.39 | 3
PLAA | 3 | -0.918 | -3.49 | 4.12
OR52M1 | 1 | 0.0744 | 3.49 | 5.49
OR52M1 | 2 | 1.38 | 12.6 | 7.1
OR52M1 | 3 | 2.72 | 22.1 | 8.27
ZMYND15 | 1 | -0.998 | -4.06 | 1.18
ZMYND15 | 2 | 2.01 | 17.1 | 9.81
ZMYND15 | 3 | -0.512 | -0.635 | 3.27
SRP14 | 1 | 2.66 | 21.7 | 11.1
SRP14 | 2 | 0.281 | 4.95 | 7.35
SRP14 | 3 | 0.0666 | 3.44 | 5.72
FBXL5 | 1 | -1.31 | -6.24 | 2.07
FBXL5 | 2 | -0.754 | -2.34 | 2.93
FBXL5 | 3 | -0.032 | 2.74 | 4.26
CENPL | 1 | -0.593 | -1.2 | 3.05
CENPL | 2 | 0.194 | 4.33 | 5.92
CENPL | 3 | -0.41 | 0.0799 | 3.03
CENPL | 4 | 0.629 | 7.39 | 5.27
CENPL | 5 | -0.891 | -3.3 | 2.38
CENPL | 6 | -0.0913 | 2.32 | 4.46
IFFO1 | 1 | -0.647 | -1.58 | 3.82
IFFO1 | 2 | 0.889 | 9.22 | 7.93
IFFO1 | 3 | -0.689 | -1.88 | 2.64
TYW3 | 1 | 0.784 | 8.49 | 7.37
TYW3 | 2 | -0.363 | 0.416 | 3.23
TYW3 | 3 | -0.845 | -2.97 | 1.5
SF3B1 | 1 | 4.08 | 31.6 | 19.1
SF3B1 | 2 | 7.55 (active) | 56.1 | 22.9
SF3B1 | 3 | 1.77 | 15.4 | 9.15
FERD3L | 1 | 1.22 | 11.6 | 6.88
FERD3L | 2 | -0.843 | -2.97 | 2.5
FERD3L | 3 | -0.164 | 1.81 | 3.75
LOC100128762 | 1 | -0.977 | -3.9 | 1.94
LOC100128762 | 2 | -0.152 | 1.9 | 3.76
LOC100128762 | 3 | 1.7 | 14.9 | 9.39
OR13C8 | 1 | 1.45 | 13.2 | 9.14
OR13C8 | 2 | -0.549 | -0.894 | 2.82
OR13C8 | 3 | -0.361 | 0.426 | 2.73
